Source: the supplement of paper PMC8047044
Some of the results follow. Single values are uncertain, as repeats are few or missing.

tested on: Neuro-2a; test: neurite formation score, plate-normalized to DMSO control mean 5.04 (score (0-8 scale)); higher = more or longer neurites; conditions: 10 µM

Compound | neurite formation score
CC(C)(C)Cn1c(N)nc2ccc(-c3[nH]c(C(C)(C)C)nc3-c3ccc(F)cc3)nc21 | 4.52
COc1cc2ncnc(Nc3ccc(F)c(Cl)c3)c2cc1OCCCN1CCOCC1 [Gefitinib (ZD1839)] | 4.85
O=C(Nc1cccnc1)c1cc(-c2ccnc(F)c2)ccc1OCc1ccccc1 | 4.86
O=C1NCCCc2c1oc1ccc(O)cc21 | 5.43
O=C(Nc1ccccc1C(=O)NC1CCCCNC1=O)c1cc2ccccc2s1 (centres undefined) | 4.86
c1cc(-c2cnn3cc(-c4ccc(N5CCNCC5)cc4)cnc23)c2cccnc2c1 | 4.19
COc1ccccc1-c1cc(Nc2cccc(CS(N)(=O)=O)c2)ncn1 | 5.52
O=c1cc(N2CCOCC2)oc2c1ccc1ccccc12 | 3.42
C=CC(=O)N1CCC(Oc2cc3c(Nc4ccc(Cl)c(Cl)c4F)ncnc3cc2OC)CC1 [Poziotinib] | -0.576
CN(C)C1CCN(C(=O)c2ccc(NC(=O)Nc3ccc(-c4nc(N5CCOCC5)nc(N5CCOCC5)n4)cc3)cc2)CC1 | 3.76
O=c1c(-c2ccc(O)cc2)coc2cc(O)cc(O)c12 [Genistein] | 4.54
COc1cc2ncnc(Oc3cccc(NC(=O)Nc4cc(C(C)(C)C(F)(F)F)on4)c3)c2cc1OC | 3.21
CCOc1cc2ncc(C#N)c(Nc3ccc(OCc4ccccn4)c(Cl)c3)c2cc1NC(=O)/C=C/CN(C)C [Neratinib (HKI-272)] | 1.42
COc1cc2ncnc(Nc3cccc(Cl)c3)c2cc1OC | 4.85
O=C1NC(=O)C(c2ccccc2[N+](=O)[O-])=C1Nc1ccc(O)c(Cl)c1 | 4.85
O=C(NC[C@H](O)CO)c1ccncc1Nc1ccc(I)cc1F | 4.85
OCCn1cc(-c2ccc3c(c2)CC/C3=N\O)c(-c2ccncc2)n1 | 4.41
C[C@@H](Oc1cc(-n2cnc3ccc(CN4CCN(C)CC4)cc32)sc1C(N)=O)c1ccccc1C(F)(F)F | 1.09
CC[C@@H]1C(=O)N(C)c2cnc(Nc3ccc(C(=O)N[C@H]4CC[C@H](N5CCN(CC6CC6)CC5)CC4)cc3OC)nc2N1C(C)C [BI6727 (Volasertib)] | 4.76
COc1cc2c(Oc3ccc4[nH]c(C)cc4c3F)ncnc2cc1OCCCN1CCCC1 [Cediranib (AZD217)] | 2.88

As entered above.
neurite formation score, `O=c1c(-c2ccc(O)cc2)coc2cc(O)cc(O)c12` [Genistein] is entered as 4.54
neurite formation score, `O=C1NCCCc2c1oc1ccc(O)cc21` is entered as 5.43
neurite formation score, `COc1cc2ncnc(Nc3ccc(F)c(Cl)c3)c2cc1OCCCN1CCOCC1` [Gefitinib (ZD1839)] is entered as 4.85

(further entries)

Compound | neurite formation score
CN(C)c1nc2c(Br)c(Br)c(Br)c(Br)c2[nH]1 | 5.41
CCCCCCCCCCCCCCCc1cccc(O)c1C(=O)O [Anacardic acid] | 1.08
CN(C)C(=O)c1cc2cnc(Nc3ccc(N4CCNCC4)cn3)nc2n1C1CCCC1 | 6.09
Oc1cc(O)cc(/C=C/c2ccc(O)c(O)c2)c1 [Piceatannol] | 5.19
COc1cc2c(Oc3ccc(NC(=O)C4(C(=O)Nc5ccc(F)cc5)CC4)cc3F)ccnc2cc1OCCCN1CCOCC1 | 0.209
CC1(C)CNc2cc(NC(=O)c3cccnc3NCc3ccncc3)ccc21 [Motesanib Diphosphate (AMG-706)] | 3.41
CS(=O)(=O)N1CCN(Cc2cc3nc(-c4cccc5[nH]ncc45)nc(N4CCOCC4)c3s2)CC1 [GDC-0941 dimethanesulfonate] | 0.424
O=C(NCc1ccccc1)c1csc(Nc2ccncn2)n1 [Thiazovivin] | 4.85
O=C1NC(=NCc2cccs2)S/C1=C\c1ccc2ncccc2c1 | 5.09
C=CC(=O)Nc1cccc(Oc2nc(Nc3ccc(N4CCN(C)CC4)cc3OC)ncc2Cl)c1 | -0.124
CN1CCN(c2cccc(Nc3nc4c(-c5ccc(S(C)(=O)=O)cc5)cccn4n3)c2)CC1 | 4.08
Cc1ccc(-c2csc3ncnc(SCCC(=O)O)c23)cc1 | 3.41
C=CC(=O)Nc1cc2c(Nc3ccc(F)c(Cl)c3)ncnc2cc1OCCCN1CCOCC1 [Canertinib (CI-1033)] | 2.88
CN(C[C@@H]1COCCO1)S(=O)(=O)Nc1ccc2ccc3ncc(-c4cnn(C)c4)cc3c(=O)c2c1 | 3.76
COc1cc(Nc2ncc(F)c(Nc3ccc4c(n3)NC(=O)C(C)(C)O4)n2)cc(OC)c1OC [R406 (free base)] | 3.19
O=C(NOCC(O)CO)c1cc(Br)c(F)c(F)c1Nc1ccc(I)cc1F (centres undefined) | 4.85
COc1cc(N2CCC(N)CC2)ccc1Nc1ncc(Cl)c(-c2c[nH]c3ccccc23)n1 | 1.09
Cn1cc(C2=C(c3ccc(Cl)cc3Cl)C(=O)NC2=O)c2ccccc21 | 4.76
CCNc1nc(Nc2cc(F)c(C(=O)N3CCOCC3)cc2OC)ncc1C(F)(F)F | 4.86
